The target of test [1] is T1, Flag-tagged SRSF7 (serine/arginine-rich splicing factor 7), full length (UniProt Q16629).
T1 sequence: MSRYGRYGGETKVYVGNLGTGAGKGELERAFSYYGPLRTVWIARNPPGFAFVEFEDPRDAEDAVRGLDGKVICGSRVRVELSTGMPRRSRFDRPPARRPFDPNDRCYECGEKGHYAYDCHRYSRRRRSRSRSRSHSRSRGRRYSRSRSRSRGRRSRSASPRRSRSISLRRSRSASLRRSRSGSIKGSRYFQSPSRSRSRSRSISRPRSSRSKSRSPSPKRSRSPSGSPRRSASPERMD
In words: co-IP.

Sequences of proteins named here, by UniProt entry; tags and fusion partners are left off.
UniProt Q86U44, whole entry: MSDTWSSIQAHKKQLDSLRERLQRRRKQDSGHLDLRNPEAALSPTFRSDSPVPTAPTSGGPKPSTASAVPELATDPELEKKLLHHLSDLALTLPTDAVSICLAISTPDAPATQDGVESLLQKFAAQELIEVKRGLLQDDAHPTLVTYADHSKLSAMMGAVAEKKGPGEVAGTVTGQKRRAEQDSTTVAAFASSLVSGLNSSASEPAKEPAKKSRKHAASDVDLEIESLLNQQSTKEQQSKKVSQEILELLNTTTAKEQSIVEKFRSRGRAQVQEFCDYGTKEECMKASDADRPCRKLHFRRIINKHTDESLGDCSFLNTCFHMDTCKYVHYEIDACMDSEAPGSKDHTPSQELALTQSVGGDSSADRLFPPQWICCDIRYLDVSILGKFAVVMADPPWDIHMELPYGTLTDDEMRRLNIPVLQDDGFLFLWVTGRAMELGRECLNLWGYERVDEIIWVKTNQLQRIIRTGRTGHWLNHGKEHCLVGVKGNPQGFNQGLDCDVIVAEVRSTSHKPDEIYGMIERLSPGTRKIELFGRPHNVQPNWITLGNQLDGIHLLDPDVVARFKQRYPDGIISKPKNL

The target of test [2] is T2, Flag-tagged SRSF7 (in 293T cells) (UniProt Q16629).
T2 sequence: T1 sequence
As to the kind of experiment: co-IP.

No constants are given. Whether binding was seen depends on the method and setting. In cells and extracts the contact can be indirect. Some entries that bind do so weakly or less than the wild type. Where a sequence is shown, tags or fusion partners need not be part of it.

“HA-tagged METTL3 (from UniProt Q86U44 1-580)”: in test [1], the binding result is reported as “binds”.
“endogenous METTL3 (293T cells) (from UniProt Q86U44 1-580)”: the binding result in test [2] is “binds”.
Consider “endogenous METTL3 (U87MG cells) (from UniProt Q86U44 1-580)”, for which, in test [1], the binding entry was “binds”.

These data come from doi:10.1101/2021.10.11.463901.
